{
  "source": "patent US12270054B2",
  "about": "“Autologous tumor organoid and immune cell co-cultures and methods of use as predictive models for pancreatic cancer treatment” (University of Cincinnati, priority 2019, dated 2025)",
  "tested_on": "PD-L1 expressing organoids and MDSCs",
  "experiment": "Autologous organoid/MDSCs co-cultures derived from JAX and TAC mice",
  "type": "cell-based, mouse",
  "conditions": "organoid/MDSCs co-cultures from either JAX or TAC mice (FIGS. 8D, 8E)",
  "note": "For at least one compound, name, drawing or mass did not settle the structure.",
  "data": [
    {"molecule": "COc1cc2nccc(Oc3ccc(NC(=O)C4(C(=O)Nc5ccc(F)cc5)CC4)cc3)c2cc1OC", "note": "[cabo, cabozantinib]", "values": [
      {"measurement": "PD-L1 expressing cell death", "result": "did not significantly induce"}
    ]}
  ]
}
